Assay results as given in patent US9289496B2, “Lipid dipeptide and gel” (Nissan Chemical Industries, Ltd., priority 2008, dated 2016).
Residues, ends and D or L forms follow the SMILES beside them.

Assay: Preparation of film from sheet-shaped gel
Type: physicochemical
Experimental: Into a screw tube (Maruemu No. 3, manufactured by Maruemu Corp.), 3 mg of N-palmitoyl-Gly-His.TFA salt prepared in Example 1 was placed. Into the screw tube, 0.6 ml of Japanese Pharmacopoeia purified water (Kyoei Pharmaceutical Industries, Ltd.) was added so as to have a concentration of 0.5% (w/v). The whole was heated at 105° C. for 5 minutes, and then allowed to stand at room temperature to prepare a gel of 0.5% N-palmitoyl-Gly-His.TFA salt.
Into the gel, 2 ml of Japanese Pharmacopoeia purified water (Kyoei Pharmaceutical Industries, Ltd.) was further added and sheet formation was observed from a wide view for 72 hours.
Using 10 mg of free N-palmitoyl-Gly-His, each 2.0 mL of 30%, 20%, and 10% glycerin aqueous solutions was added so as to become a 0.5% (w/v) solution, and the mixture solution was heated and dissolved at 80° C. The solution was placed in a glass petri dish having an inner diameter of 2.2 cm and allowed to cool at room temperature. […] Then, the obtained gel was transferred onto a glass substrate.

SMILES	Film formation from gel sheet (0.5% (w/v) gel sheet in water, on glass substrate, desiccator for over ten days)	Film formation from sheet-shaped gel (0.5% (w/v) gels in 30%, 20% and 10% glycerin aqueous solutions, desiccator for 10 days)
CCCCCCCCCCCCCCCC(=O)NCC(=O)N[C@@H](Cc1c[nH]cn1)C(=O)O.O=C(O)C(F)(F)F [Example 1, N-palmitoyl-Gly-His.TFA salt] (HELM PEPTIDE1{[CCCCCCCCCCCCCCCC(=O)[*:2]].G.H}$$$$V2.0)	a film of N-palmitoyl-Gly-His.TFA salt was prepared	
CCCCCCCCCCCCCCCC(=O)NCC(=O)N[C@@H](Cc1c[nH]cn1)C(=O)O [Example 4, N-Palmitoyl-Gly-His] (HELM PEPTIDE1{[CCCCCCCCCCCCCCCC(=O)[*:2]].G.H}$$$$V2.0)		a film of free N-palmitoyl-Gly-His containing glycerin was prepared from each gel
